Values from PubChem BioAssay AID652243 (Drosophila RNAi Screening Center, 2013).
The deposit covers about 24,000 reagents; this is an unselected part of those that have a named target and a result. In the full data, 246 (1%) were called active. 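Plates not normalised; calls are printed but the firefly/Renilla ratio behind them is not deposited; fold cut for lowering reported inconsistently.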 The raw values are shown without normalisation. Names joined by + are all predicted targets of the reagent. Reagent sequences are not shown. Not given: the amount of reagent.

Assay: 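Fly genes required for human androgen receptor driven transcription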 (primary screen)
System: Drosophila S2R+ cells
Reagent: long dsRNA against Drosophila genes
Timing: 72 h (48 h, then 24 h hormone)
Conditions: synthetic androgen R1881 at 10 nM for 24 h
Measurement: 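Per-well raw luminescence of the androgen-driven firefly reporter and of the Renilla control, two replicates each, without normalisation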
Reading the numbers: firefly reporter light: higher = more light from androgen-responsive reporter; Renilla control light: higher = more constitutive control signal (cell number, transfection)
Active means: 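Hit when the log firefly-to-Renilla ratio dropped or increased by a fixed fold versus the mean of GFP or LacZ controls across duplicate plates; lowering cut given as 1.5 and as 3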
Calls: active = hit: reporter lowered or raised; inactive = no hit

| gene | PubChem SID | firefly reporter light, replicate 1 | firefly reporter light, replicate 2 | Renilla control light, replicate 1 | Renilla control light, replicate 2 | outcome |
| --- | --- | --- | --- | --- | --- | --- |
| CG34109 (GeneID 4379890) | SID104181961 | 1.41e5 | 1.15e5 | 1.03e6 | 8.98e5 | inactive |
| CG34109 (GeneID 4379890) | SID104182016 | 1.32e5 | 1.65e5 | 8.39e5 | 1.12e6 | inactive |
| CG34109 (GeneID 4379890) | SID104182017 | 1.76e5 | 1.74e5 | 1.28e6 | 1.21e6 | inactive |
| CG34109 (GeneID 4379890) | SID104205521 | 3.76e5 | 3.32e5 | 6.42e5 | 5.59e5 | inactive |
| CG34109 (GeneID 4379890) | SID104208648 | 7.85e5 | 8.87e5 | 1.32e6 | 1.26e6 | inactive |
| Skp2 + CG1103 | SID104191952 | 69152 | 85825 | 7.08e5 | 7.99e5 | inactive |
| Skp2 + CG1103 | SID104201847 | 4.27e5 | 4.40e5 | 1.10e6 | 1.02e6 | inactive |
| dhd (GeneID 31444) | SID104198553 | 1.25e5 | 1.22e5 | 8.81e5 | 7.89e5 | inactive |
| dhd (GeneID 31444) | SID104208134 | 7.52e5 | 7.53e5 | 1.07e6 | 1.07e6 | inactive |
| REPTOR (GeneID 42930) | SID104194418 | 7997 | 24257 | 2.27e5 | 2.32e5 | inactive |
| REPTOR (GeneID 42930) | SID104203152 | 2.62e5 | 2.63e5 | 3.79e5 | 3.65e5 | inactive |
| TotX (GeneID 117460) | SID104201742 | 5.20e5 | 5.80e5 | 2.18e6 | 1.59e6 | inactive |
| TotX (GeneID 117460) | SID104207652 | 4.84e5 | 4.93e5 | 1.60e6 | 1.45e6 | inactive |
| CG31639 (GeneID 318866) | SID104180702 | 2.18e5 | 1.84e5 | 7.37e5 | 5.04e5 | inactive |
| CG31639 (GeneID 318866) | SID104206815 | 5.52e5 | 8.16e5 | 1.21e6 | 1.64e6 | inactive |
| mRpS29 (GeneID 37563) | SID104184190 | 6.29e5 | 5.87e5 | 1.07e6 | 1.03e6 | inactive |
| mRpS29 (GeneID 37563) | SID104206334 | 5.20e5 | 3.73e5 | 7.30e5 | 7.19e5 | inactive |
| Toll-6 (GeneID 39663) | SID104191096 | 2.37e5 | 1.67e5 | 2.03e6 | 2.02e6 | inactive |
| eIF3g2 (GeneID 42422) | SID104194067 | 2.27e5 | 2.59e5 | 1.66e6 | 2.02e6 | inactive |
| eIF3g2 (GeneID 42422) | SID104207504 | 4.41e5 | 3.70e5 | 1.69e6 | 1.50e6 | active |
| Ir54a + sub | SID104186251 | 81190 | 67718 | 1.69e6 | 1.69e6 | inactive |
| Datp (GeneID 318908) | SID104180894 | 78301 | 1.36e5 | 3.07e5 | 2.96e5 | inactive |
| CG14130 (GeneID 39335) | SID104189926 | 1.94e5 | 1.49e5 | 2.43e6 | 2.23e6 | inactive |
| Ccp84Aa (GeneID 40825) | SID104192378 | 1.79e5 | 1.30e5 | 3.61e6 | 2.38e6 | inactive |
| Ccp84Aa (GeneID 40825) | SID104203660 | 6.39e5 | 6.22e5 | 9.41e5 | 8.73e5 | inactive |

Look-ups from the list:
dhd (GeneID 31444) [SID104208134], Renilla control light, replicate 2 = 1.07e6
Ir54a + sub [SID104186251], outcome = inactive
